{"source": "PubChem BioAssay AID1224827 (NIAID, 2016)", "screen": "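Identify regulators of the macrophage TNF-alpha response to bacterial LPS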 (follow-up of hits)", "cells": "RAW264.7 G9 mouse macrophage reporter clone", "reagent": "single siRNA against mouse genes, 100 nM siRNA", "timing": "siRNA for 2 days, then LPS about 16 h", "conditions": "bacterial lipopolysaccharide (LPS), 10 ng/ml, cells fixed after overnight (about 16 h) stimulation", "measured": "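TNF promoter reporter red fluorescence in nuclei, background subtracted, normalised per plate and to non-targeting control siRNA, as z-scores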", "direction": "TNF reporter z-score, mean: higher = stronger Tnf promoter reporter signal", "active means": "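An siRNA is called active when its mean z-score over replicates is at least +2 or at most -2; control wells get no call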", "note": "In all, the deposit lists about 3,800 reagents; below is a random part of them. About 2,200 of them (57%) were called active. 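Active means a strong reporter change in either direction; calls are per siRNA, not per gene; qiagen siRNAs gave weaker effects.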 The numbers tell different reagents against one gene apart. Further read-outs or replicates are left out here."}
{"target gene":"Or13a25 (olfactory receptor family 13 subfamily A member 25)","siRNA no.":1,"TNF reporter z-score, mean":-1.85,"Outcome":"inactive"}
{"target gene":"Or13a25 (olfactory receptor family 13 subfamily A member 25)","siRNA no.":2,"TNF reporter z-score, mean":-2.94,"Outcome":"active"}
{"target gene":"Or13a25 (olfactory receptor family 13 subfamily A member 25)","siRNA no.":3,"TNF reporter z-score, mean":-4.88,"Outcome":"active"}
{"target gene":"Or13a25 (olfactory receptor family 13 subfamily A member 25)","siRNA no.":4,"TNF reporter z-score, mean":2.75,"Outcome":"active"}
{"target gene":"Or13a25 (olfactory receptor family 13 subfamily A member 25)","siRNA no.":5,"TNF reporter z-score, mean":0.877,"Outcome":"inactive"}
{"target gene":"Or13a25 (olfactory receptor family 13 subfamily A member 25)","siRNA no.":6,"TNF reporter z-score, mean":-2.83,"Outcome":"active"}
{"target gene":"Numbl (numb-like)","siRNA no.":1,"TNF reporter z-score, mean":-2.45,"Outcome":"active"}
{"target gene":"Numbl (numb-like)","siRNA no.":2,"TNF reporter z-score, mean":-3.09,"Outcome":"active"}
{"target gene":"Numbl (numb-like)","siRNA no.":3,"TNF reporter z-score, mean":-3.41,"Outcome":"active"}
{"target gene":"Numbl (numb-like)","siRNA no.":4,"TNF reporter z-score, mean":4.45,"Outcome":"active"}
{"target gene":"Numbl (numb-like)","siRNA no.":5,"TNF reporter z-score, mean":3.5,"Outcome":"active"}
{"target gene":"Numbl (numb-like)","siRNA no.":6,"TNF reporter z-score, mean":-2.87,"Outcome":"active"}

3 successive records from above:
{"target gene":"Or13a25 (olfactory receptor family 13 subfamily A member 25)","siRNA no.":4,"TNF reporter z-score, mean":2.75,"Outcome":"active"}
{"target gene":"Or13a25 (olfactory receptor family 13 subfamily A member 25)","siRNA no.":5,"TNF reporter z-score, mean":0.877,"Outcome":"inactive"}
{"target gene":"Or13a25 (olfactory receptor family 13 subfamily A member 25)","siRNA no.":6,"TNF reporter z-score, mean":-2.83,"Outcome":"active"}

The results go on:
{"target gene":"Kif23 (kinesin family member 23)","siRNA no.":1,"TNF reporter z-score, mean":-1.93,"Outcome":"inactive"}
{"target gene":"Kif23 (kinesin family member 23)","siRNA no.":2,"TNF reporter z-score, mean":-3.79,"Outcome":"active"}
{"target gene":"Kif23 (kinesin family member 23)","siRNA no.":3,"TNF reporter z-score, mean":-4.14,"Outcome":"active"}
{"target gene":"Kif23 (kinesin family member 23)","siRNA no.":4,"TNF reporter z-score, mean":0.899,"Outcome":"inactive"}
{"target gene":"Kif23 (kinesin family member 23)","siRNA no.":5,"TNF reporter z-score, mean":0.364,"Outcome":"inactive"}
{"target gene":"Kif23 (kinesin family member 23)","siRNA no.":6,"TNF reporter z-score, mean":-2.14,"Outcome":"active"}
{"target gene":"Psmd4 (proteasome (prosome, macropain) 26S subunit, non-ATPase, 4)","siRNA no.":1,"TNF reporter z-score, mean":-2.6,"Outcome":"active"}
{"target gene":"Psmd4 (proteasome (prosome, macropain) 26S subunit, non-ATPase, 4)","siRNA no.":2,"TNF reporter z-score, mean":-2.76,"Outcome":"active"}
{"target gene":"Psmd4 (proteasome (prosome, macropain) 26S subunit, non-ATPase, 4)","siRNA no.":3,"TNF reporter z-score, mean":-4.6,"Outcome":"active"}
{"target gene":"Psmd4 (proteasome (prosome, macropain) 26S subunit, non-ATPase, 4)","siRNA no.":4,"TNF reporter z-score, mean":12.9,"Outcome":"active"}
{"target gene":"Psmd4 (proteasome (prosome, macropain) 26S subunit, non-ATPase, 4)","siRNA no.":5,"TNF reporter z-score, mean":11.9,"Outcome":"active"}
{"target gene":"Psmd4 (proteasome (prosome, macropain) 26S subunit, non-ATPase, 4)","siRNA no.":6,"TNF reporter z-score, mean":3.13,"Outcome":"active"}
